Data as given in PubChem BioAssay AID1224828 (NIAID, 2016)

Screen: 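Find genes required for NF-kappaB p65 moving into the nucleus after LPS in mouse macrophages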 (primary screen)
Cell system: mouse RAW264.7 G9 macrophage reporter cells (GFP-p65, Tnf promoter-mCherry)
Reagents: siRNA pool against mouse genes, 100 nM
Time to read-out: 2 days siRNA transfection, then 40 min LPS before fixation
Challenge: LPS (Salmonella minnesota R595) at 10 ng/ml
Measured: 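Microscopy ratio of nuclear to perinuclear-ring GFP-p65 signal, scaled to the plate median; gene score is the average of two replicate robust z-scores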
Scale: p65 translocation robust z-score: higher = more nuclear NF-kappaB p65 after LPS than the plate median; nuclear/cytoplasmic p65 ratio: higher = more nuclear NF-kappaB p65
Rule for the call: 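Active if robust z is above 3.3 (negative regulators) or below -1.56, the Tlr4 control median (positive regulators); activity score 50 or more; control wells not called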
Calls: active = hit (p65 shift raised or lowered); inactive = no clear change
The deposit covers about 17,000 reagents; shown is a part drawn at random. Of all reagents, 762 (4.5%) are marked active. 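Active calls include both raised and lowered p65 entry, mostly lowered; wells with fewer than 50 cells lack a z-score.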 Raw values vary from plate to plate and are shown uncorrected.

| Gene | p65 translocation robust z-score | nuclear/cytoplasmic p65 ratio, rep 1 | nuclear/cytoplasmic p65 ratio, rep 2 | low cell count flag | activity call |
| --- | --- | --- | --- | --- | --- |
| Cox6b1 (GeneID 110323) | 0.45 | 1.75 | 1.74 | enough cells to score | inactive |
| Olah (GeneID 99035) | -0.43 | 1.45 | 1.47 | enough cells to score | inactive |
| Oc90 (GeneID 18256) | 0.77 | 1.83 | 1.65 | enough cells to score | inactive |
| Zfp503 (GeneID 218820) | 0.21 | 1.52 | 1.27 | enough cells to score | inactive |
| Cd209d (GeneID 170779) | -0.43 | 1.59 | 1.65 | enough cells to score | inactive |
| Cds2 (GeneID 110911) | 0.46 | 1.6 | 1.93 | enough cells to score | inactive |
| Trmt10b (GeneID 69934) | – | 1.52 | 1.41 | fewer than 50 cells per well; well left out of scoring | inactive |
| Map3k14 (GeneID 53859) | -0.92 | 1.41 | 1.36 | enough cells to score | inactive |
| Hmmr (GeneID 15366) | -0.87 | 1.32 | 1.26 | enough cells to score | inactive |
| Rhox6 (GeneID 19202) | -0.11 | 1.33 | 1.21 | enough cells to score | inactive |
| E330013P04Rik (GeneID 107376) | -2.03 | 1.18 | 1.14 | enough cells to score | active |

Reprinted from the listing for reference:
| Gene | p65 translocation robust z-score | nuclear/cytoplasmic p65 ratio, rep 1 | nuclear/cytoplasmic p65 ratio, rep 2 | low cell count flag | activity call |
| --- | --- | --- | --- | --- | --- |
| Oc90 (GeneID 18256) | 0.77 | 1.83 | 1.65 | enough cells to score | inactive |
| Zfp503 (GeneID 218820) | 0.21 | 1.52 | 1.27 | enough cells to score | inactive |

Additional records follow:
| Gene | p65 translocation robust z-score | nuclear/cytoplasmic p65 ratio, rep 1 | nuclear/cytoplasmic p65 ratio, rep 2 | low cell count flag | activity call |
| --- | --- | --- | --- | --- | --- |
| Prpf38a (GeneID 230596) | – | 1.36 | 1.59 | fewer than 50 cells per well; well left out of scoring | inactive |
| Foxk1 (GeneID 17425) | 0.8 | 1.67 | 1.61 | enough cells to score | inactive |
| Fam149a (GeneID 212326) | 0.77 | 1.71 | 1.95 | enough cells to score | inactive |
| Slc6a8 (GeneID 102857) | 0.75 | 1.64 | 1.61 | enough cells to score | inactive |
| Usp6nl (GeneID 98910) | -0.11 | 1.57 | 1.69 | enough cells to score | inactive |
| Zfp786 (GeneID 330301) | 0.11 | 1.41 | 1.53 | enough cells to score | inactive |
| Pnpo (GeneID 103711) | -0.2 | 1.32 | 1.67 | enough cells to score | inactive |
| Sirt5 (GeneID 68346) | 1.27 | 1.57 | 1.4 | enough cells to score | inactive |
| Opn3 (GeneID 13603) | 0.8 | 1.55 | 1.78 | enough cells to score | inactive |
| Cd55b (GeneID 13137) | 0.67 | 1.68 | 1.63 | enough cells to score | inactive |
| Ifitm2 (GeneID 80876) | -1.25 | 1.36 | 1.63 | enough cells to score | inactive |
| Ranbp3 (GeneID 71810) | 0.57 | 1.71 | 1.69 | enough cells to score | inactive |
| Nudt2 (GeneID 66401) | 0.87 | 1.58 | 1.48 | enough cells to score | inactive |
